Test results published in the supplement of paper PMC5949888.
Most values lie at the floor of the assay. Slopes are relative: functional sequences can read slightly below zero.

These substances were tested on Saccharomyces cerevisiae PS128 hsf1 delta, HSF1(1-493) fusion (assay: growth estimate (transactivation domain function in HSF1 fusion, heat-shock survival) (a.u. (slope of normalised read count over time)); higher = stronger growth at 37°C, i.e. more transactivation activity). Conditions: library: random library.

Substance | growth estimate
TVAYVAFLLQAVHGMSQELQ | < -0.25
DRSRVLGSRQSVMA | < -0.25
VLRRQFEFLSRLN | < -0.25
RIPLGLLSYSVLNINKTSPD | < -0.25
LFAQGCKCYGMCPGIVRGHP | < -0.25
NNGVDGGDYADGYGRGVTGS | < -0.25
WAPCMVEIAGSAQAEVLVPG | < -0.25
KGTDDSAITRRPVDA | < -0.25
GLPGSRR | < -0.25
KSGCFC | < -0.25
SCPS | < -0.25
DFAHQD | < -0.25
RQTQLWCRVSAAYFWWRIV | -0.239
SPRCQLECYGRASPGLLSLR | < -0.25
TGTDYLQSGRPPGMRTFRLR | 0.0112
ANFDLVSWTRGSEVEYRCTC | < -0.25
GQDGSSPDEVAEVIAPLIPV | < -0.25
NRPLGKLNALPGKDGTRPRA | < -0.25
SAVLLNMVM | < -0.25
KTYFLSFVS | < -0.25
MSMVFLAAFFCGKCTGNSFE | < -0.25
GACTRDEYHRG | < -0.25
HDQHVYRVFLHSGTLYGLSR | < -0.25
LRVEVACGMMSRIASVVRGL | < -0.25
GIHQPSGRGIDP | < -0.25

Substance | growth estimate
ELLTS | < -0.25
PSTRAGHG | < -0.25
VPESSCIYFAR | < -0.25
NKRVLLNTVGDRHDSMASDL | < -0.25
STL | < -0.25
MSARDAVTWDRQAGGPVYAT | < -0.25
FNTT | < -0.25
YSIPFNTGSHTANGMDKYWA | < -0.25
SGGRDASRRLR | < -0.25
TGLRAMKGGWGQ | -0.241
GSRGSHNRGRV | < -0.25
GGRIHLNAG | < -0.25
GEVEFLVKQGDLPSLASRKV | < -0.25
ARGSW | < -0.25
PSTRWLSGSALMCEHGAAQG | < -0.25
LGKGKESGSNYTGVQHNRVG | < -0.25
ATAIQIPKLRRHADGSQTTS | < -0.25
KKHAFCRVVIQHVDTEVTSG | -0.243
GTVTAE | < -0.25
APALLGPNIPA | < -0.25
RVL | < -0.25
PNKLLIQRPEADRCGLLLGG | < -0.25
GLYDVYIHR | < -0.25
SAFWDVRLGTFWCRKD | < -0.25
VKCI | < -0.25

Substance | growth estimate
RDLFDVWVYRAVDQGLGPLL | < -0.25
RKGSER | < -0.25
VLFS | < -0.25
TLMFVGEG | < -0.25
SKVTSLSARQPYGPAVL | < -0.25
DKAGAGLLALATNSLRQLHG | < -0.25
RRIRWSILVLAQSAEVCFGP | < -0.25
GRALRWARAWSVVVAKPQLG | < -0.25
ISSFQTTDRHDQGSVGI | < -0.25
IQSNLFRGRPVVFWVAFTGE | < -0.25
MHQWGRLRLDVIRPHSKDGA | < -0.25
AEPCRADAKFSDKPTTEIRQ | -0.187
CRFSVPNFMLLYSVAEMHMS | -0.208
LCTGRWTHRST | < -0.25
INVGFLAGHSGNVRTKPE | < -0.25
VGCVKASDGIPSSCIRATWE | < -0.25
SHI | < -0.25
LVRCGVVFADSPWNAILSFG | < -0.25
SDVLGGKTPVLSDSFLLMAG | < -0.25
GFVRFWYASACPILPFEVST | < -0.25
PTAVFRVN | < -0.25
PELAGLAVSCPTGWSREALR | < -0.25
RCIRDAVGPLESSKSHRAAC | < -0.25
KPPES | < -0.25
APVLRFSSEGAYIRRGAVTG | < -0.25

Substance | growth estimate
ILTAHQSQLVPCEVLATCDG | < -0.25
RSCLLNQFTAALTHEGNNAR | < -0.25
ERVFSLEDPYRDGPNITLWT | < -0.25
SWCAQAPTSGRSSDSH | < -0.25
VERTRSRAVNPAGRSVGPHN | < -0.25
PIQISGRAACLYQSRASLSS | < -0.25
RNPNGERLTRRW | < -0.25
EESESKRLTAPIFRPSNH | < -0.25
GSGVL | < -0.25
VQMPLITAREELGQT | < -0.25
AGMFSKFDGRLSLAGWLTDP | -0.227
LRDSARSKLW | < -0.25
SVTMGCHFKVTLWY | < -0.25
NMTRQRYLLSIGLELIFRRE | < -0.25
IRGVNSASAYIYMNQGFTDI | < -0.25
NENGFCRLSCKNNCCLQCIR | < -0.25
RSVLAPEHQVNSR | < -0.25
CAPRYLVVQELPASLEAKLQ | < -0.25
TFTDFCIR | < -0.25
EDRGEHTWNTSRCTWVTWEI | < -0.25
SAGDQCVGGGPWLRPLSRRA | < -0.25
APTTDAGQRGVSLSVGSG | -0.246
YGRQPENRDCQRYTTLRRLY | < -0.25
RIVVLGYVWWLAIVER | < -0.25
NVIEDYVILYAGR | < -0.25

Substance | growth estimate
ANTALD | < -0.25
RSHGLPGLLGLANTEPKAIA | < -0.25
RTRHCVRDGTFGAGKSPGRT | < -0.25
PCRSLLGWRAIPSLLRSRLE | < -0.25
PFPGGSGRGN | < -0.25
LKPKLCHRLKMGLAGT | < -0.25
MESRLLRPPGFL | < -0.25
GPRLRTKSRVL | < -0.25
ANKRCKESHSWTQYRVGQRH | < -0.25
TPG | < -0.25
PGCFSRPHRRLHMFAWQGRH | -0.246
PPGANPCG | < -0.25
QYIGSSG | < -0.25
YTLTSRTVHSSRTLNHWECG | < -0.25
GLRVSRVQSG | < -0.25
PIVSRAQNVVDC | < -0.25
LIRGPH | -0.208
VSNRSNGVILRDRE | < -0.25
FPNQPP | < -0.25
LGWVTVQTISSAIGRKQAIP | < -0.25
PWPLAI | < -0.25
AMEGCKARWCRRA | < -0.25
IPSSYVSVSMFGE | < -0.25
VPELKGFR | < -0.25
LALGPYGSCDVNYRFCECST | < -0.25

Some of the entries above, set out differently.

| Substance | growth estimate |
| --- | --- |
| ANKRCKESHSWTQYRVGQRH | < -0.25 |
| TPG | < -0.25 |
| PIVSRAQNVVDC | < -0.25 |
| LALGPYGSCDVNYRFCECST | < -0.25 |

Additional records

Substance | growth estimate
FIMNGSPVSDYWAEAADSRR | < -0.25
GARLKEGPTLAQEDRLHVPG | < -0.25
TDVNYYYAAGSLLLLYCTAR | < -0.25
ERYPSEVAIPSRSGDLQWCG | < -0.25
SPADEPRCQRRLKVKANRFG | < -0.25
GVACDRISYAPHWCGLRVRI | < -0.25
DSGTGWCCLRLTTTGGTRPF | < -0.25
PVVRPRQMWSGRLYGPATRY | < -0.25
RSTGVELYSLISTCL | < -0.25
AVATAGGLLGSGSRATSAVS | < -0.25
RLSIHFGAVTDTC | < -0.25
PSA | < -0.25
VQIYLRRGRVRCDRRLSPPT | < -0.25
SLACRRPNSISMGWHDTGGH | < -0.25
VHVIPLKPPINVEHDIQEKA | < -0.25
SLFTAERSSVPLFRETI | < -0.25
VYVELVSAALRNHILGYVLG | < -0.25
SII | < -0.25
IGDCCILGSSGGEKGLFGLF | 3.64
WIRSLGQ | < -0.25
QSLGLYSLDVVGLGMLSTLA | < -0.25
GVRPVDLISFRIFFSIFRMF | < -0.25
KRSKVTRRVAPIYMLHNVTI | < -0.25
PYRHGAGDLRRQVVVTQFRS | < -0.25
NMIFSIRVVSMR | < -0.25

Substance | growth estimate
TNRVDPPEGPKRRRHSR | -0.243
SHNQSACGAGRLG | < -0.25
VTTCPVAGPKPERPAAL | < -0.25
PQVGLRVSHRVSSAGRRPCY | < -0.25
RVKKTAAQNM | < -0.25
SLLQDVSAVTNKPMATGPLV | < -0.25
RGKYPRDRLAHAYSEGTERW | < -0.25
IMQVREIFR | < -0.25
AVGNGEDARDVTGKQA | < -0.25
YRTRVQDAKHANPT | < -0.25
IMVKCYPLTMPRRWKQTGYD | < -0.25
ALPRRAVTLRYHVIVRRRNA | < -0.25
STIQNL | < -0.25
CSDGSLTWTRKPAHGIFDRD | < -0.25
PSGTCRIADEVT | -0.224
IFTGMRRTS | < -0.25
LPNCMGWQSKPRVANGSVTR | < -0.25
VGRR | < -0.25
GVLRSVMGSAE | < -0.25
LRNGFTLLLPNVYPVSRLLQ | < -0.25
PVCGGSDTVWVEGKELPATS | < -0.25
FIHRYYGTVCINTHIDRSSW | < -0.25
VVLRSARCRQRDERSCRQGI | < -0.25
YRGLCLFRKIHVTS | < -0.25
VYFAIKHN | < -0.25

Looked up one by one from the entries so far:
Substance | growth estimate
VGRR | < -0.25
LGKGKESGSNYTGVQHNRVG | < -0.25
LALGPYGSCDVNYRFCECST | < -0.25
STIQNL | < -0.25
RGKYPRDRLAHAYSEGTERW | < -0.25
VYFAIKHN | < -0.25

Next part.

Substance | growth estimate
GQCVSAVLYGGYVPAGLPQG | < -0.25
HTWTMFANELPAFLPTTAMH | 0.0093
GGVRRYSLGHLISGALNESR | < -0.25
SQAGSQ | < -0.25
CRAVCG | < -0.25
LVFRQIQRRGAWAGTC | < -0.25
CSSKSL | < -0.25
HRFETWCLENSQGGLYVHLP | < -0.25
KAETFPPE | < -0.25
IRNTGSAKCVEEAYANLAQR | -0.245
KIVWTDLLWQAGRTSGPITE | < -0.25
PTQSESSAPRVLPGPGTQGP | < -0.25
SRCGVVSDPEEEHTDRPSTS | < -0.25
MEDDCAAINVAERRFRTGGS | < -0.25
ASGDNGGSIGKLAISSLKGY | < -0.25
RVKMMSESWTSRILDV | -0.0139
GAFRISSPVRLKHIRSFSDV | < -0.25
YSEKTTQDVPSQRFHSASCH | < -0.25
GLARPQVQNFLRTDSGIGIG | < -0.25
AIHILR | -0.145
